Laboratory results published in paper PMC9204741 (2022).
These are yes or no findings as the source states them, for the method shown. Where a sequence is shown, tags or fusion partners need not be part of it.

Target: T1, GST-SwrA (B. subtilis) (UniProt O32266)
T1 sequence: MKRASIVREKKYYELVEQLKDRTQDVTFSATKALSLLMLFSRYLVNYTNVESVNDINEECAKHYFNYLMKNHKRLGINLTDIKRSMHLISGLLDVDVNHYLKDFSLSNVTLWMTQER
Test: pull-down; 0.5 μM SmiA, 0.5 μM GST-SwrA, 80 nM LonA^K720Q-His6 (monomeric) mixed in 25 mM Tris pH 8.0, 100 mM KCl, 10 mM MgCl2, 0.02% NP-40, 1 mM DTT, 5 mM ATP at 37 °C; Glutathione-Sepharose resin; Western blot; both purified

B1: LonA^K720Q-His6 (enzyme, UniProt P37945 1-774)
chain: MAEELKRSIPLLPLRGLLVYPTMVLHLDVGRDKSVQALEQAMMHDHMIFLATQQDISIDEPGEDEIFTVGTYTKIKQMLKLPNGTIRVLVEGLKRAHIVKYNEHEDYTSVDIQLIHEDDSKDTEDEALMRTLLDHFDQYIKISKKISAETYAAVTDIEEPGRMADIVASHLPLKLKDKQDILETADVKDRLNKVIDFINNEKEVLEIEKKIGQRVKRSMERTQKEYYLREQMKAIQKELGDKEGKTGEVQTLTEKIEEAGMPDHVKETALKELNRYEKIPSSSAESSVIRNYIDWLVALPWTDETDDKLDLKEAGRLLDEEHHGLEKVKERILEYLAVQKLTKSLKGPILCLAGPPGVGKTSLAKSIAKSLGRKFVRISLGGVRDESEIRGHRRTYVGAMPGRIIQGMKKAGKLNPVFLLDEIDKMSSDFRGDPSSAMLEVLDPEQNSSFSDHYIEETFDLSKVLFIATANNLATIPGPLRDRMEIINIAGYTEIEKLEIVKDHLLPKQIKEHGLKKSNLQLRDQAILDIIRYYTREAGVRSLERQLAAICRKAAKAIVAEERKRITVTEKNLQDFIGKRIFRYGQAETEDQVGVVTGLAYTTVGGDTLSIEVSLSPGKGKLILTGKLGDVMRESAQAAFSYVRSKTEELGIEPDFHEKYDIHIHVPEGAVPKDGPSAGITMATALVSALTGRAVSREVGMTGEITLRGRVLPIGGLKEQALGAHRAGLTTIIAPKDNEKDIEDIPESVREGLTFILASHLDEVLEHALVGEKK
For B1, the binding was “no binding (tested: 80 nM LonA^K720Q-His6 (monomeric))”.
